Laboratory results: publication PMC3338797
Results are given in words; binding and its absence hold for the method and conditions named. In cells and extracts the contact can be indirect. Some results given as binding are weak or reduced against the parent protein; the word gives no strength. For some of these results: Where a sequence is shown, tags or fusion partners need not be part of it. Blank lines part the entries; values can stand above or below the molecule they belong to.

Amino acid sequences for entries named in this document (tags omitted). A change or cut given only in a name is not applied to a line headed by its entry. Chains listed by the source or under a name are the forms on record and can include a tag or linker.
Flag-tagged c-Abl, wild type (P00519, form named): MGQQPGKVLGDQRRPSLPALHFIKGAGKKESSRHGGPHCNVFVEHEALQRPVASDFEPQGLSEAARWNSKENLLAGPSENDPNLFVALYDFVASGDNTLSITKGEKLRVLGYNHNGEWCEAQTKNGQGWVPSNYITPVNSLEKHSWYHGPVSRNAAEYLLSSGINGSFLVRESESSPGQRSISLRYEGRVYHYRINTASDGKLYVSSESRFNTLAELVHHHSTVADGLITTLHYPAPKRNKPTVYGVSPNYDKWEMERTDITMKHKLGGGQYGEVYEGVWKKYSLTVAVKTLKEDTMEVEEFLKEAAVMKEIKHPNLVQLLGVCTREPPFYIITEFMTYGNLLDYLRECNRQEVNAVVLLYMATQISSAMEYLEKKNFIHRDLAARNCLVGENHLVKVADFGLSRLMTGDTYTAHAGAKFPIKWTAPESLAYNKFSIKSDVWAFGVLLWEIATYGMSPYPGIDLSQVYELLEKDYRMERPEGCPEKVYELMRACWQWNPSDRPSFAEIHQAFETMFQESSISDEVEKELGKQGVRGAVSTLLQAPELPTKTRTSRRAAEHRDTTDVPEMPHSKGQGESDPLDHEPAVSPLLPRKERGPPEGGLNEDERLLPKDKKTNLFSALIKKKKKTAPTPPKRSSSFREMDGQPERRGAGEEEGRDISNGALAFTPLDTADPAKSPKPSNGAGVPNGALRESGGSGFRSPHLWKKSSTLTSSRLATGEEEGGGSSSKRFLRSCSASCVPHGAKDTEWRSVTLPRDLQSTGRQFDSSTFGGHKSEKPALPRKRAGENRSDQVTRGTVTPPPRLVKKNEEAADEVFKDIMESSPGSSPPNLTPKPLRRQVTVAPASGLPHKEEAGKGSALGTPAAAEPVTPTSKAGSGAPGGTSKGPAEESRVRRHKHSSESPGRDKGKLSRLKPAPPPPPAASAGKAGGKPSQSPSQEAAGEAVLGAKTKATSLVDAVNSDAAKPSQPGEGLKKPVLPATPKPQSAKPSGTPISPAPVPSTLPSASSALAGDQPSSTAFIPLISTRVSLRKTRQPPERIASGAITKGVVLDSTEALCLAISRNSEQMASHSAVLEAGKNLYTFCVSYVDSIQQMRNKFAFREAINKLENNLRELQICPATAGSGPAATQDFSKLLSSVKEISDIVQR
myc-tagged Nedd4.2, wild type (Q96PU5-6, form named): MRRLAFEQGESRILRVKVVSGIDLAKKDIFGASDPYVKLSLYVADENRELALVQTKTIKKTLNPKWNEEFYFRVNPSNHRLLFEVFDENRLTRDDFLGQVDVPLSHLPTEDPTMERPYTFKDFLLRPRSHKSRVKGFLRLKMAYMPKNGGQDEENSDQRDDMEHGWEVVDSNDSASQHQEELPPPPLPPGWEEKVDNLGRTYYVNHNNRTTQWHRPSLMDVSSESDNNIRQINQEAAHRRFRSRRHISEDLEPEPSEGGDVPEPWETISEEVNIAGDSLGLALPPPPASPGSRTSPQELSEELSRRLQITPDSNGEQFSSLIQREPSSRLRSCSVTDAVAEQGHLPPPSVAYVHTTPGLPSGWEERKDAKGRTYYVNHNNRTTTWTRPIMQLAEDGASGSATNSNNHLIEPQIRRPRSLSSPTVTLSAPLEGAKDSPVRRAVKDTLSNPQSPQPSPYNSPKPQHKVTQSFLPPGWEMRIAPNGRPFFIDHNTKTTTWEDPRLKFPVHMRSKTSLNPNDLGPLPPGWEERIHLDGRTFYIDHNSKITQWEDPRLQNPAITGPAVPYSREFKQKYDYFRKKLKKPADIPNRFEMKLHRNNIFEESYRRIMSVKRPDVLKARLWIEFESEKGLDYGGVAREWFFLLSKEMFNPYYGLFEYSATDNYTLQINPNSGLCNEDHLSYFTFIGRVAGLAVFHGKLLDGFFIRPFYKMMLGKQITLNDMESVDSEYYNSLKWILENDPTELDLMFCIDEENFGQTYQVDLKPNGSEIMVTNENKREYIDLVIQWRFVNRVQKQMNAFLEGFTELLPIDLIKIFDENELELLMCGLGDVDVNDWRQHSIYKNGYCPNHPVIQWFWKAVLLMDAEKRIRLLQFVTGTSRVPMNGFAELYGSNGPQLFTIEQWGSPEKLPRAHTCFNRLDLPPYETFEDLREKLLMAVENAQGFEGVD

Experiments:
[1] = target: Flag-tagged c-Abl, wild type (human) (UniProt P00519); experiment: co-IP; HEK293T cells co-transfected; lysis buffer 20 mM Tris pH 7.5, 1% Triton X-100, 50 mM NaCl, 50 mM NaF, 15 mM Na4P2O7, 0.1 mM EDTA; lysate 1 h at 4°C with anti-Flag M2 resin; Western blot of bound proteins
[2] = target: T1, Flag-tagged AMOTL1 (Angiomotin-like 1), wild type (human) (UniProt Q8IY63); experiment: as above
T1 sequence: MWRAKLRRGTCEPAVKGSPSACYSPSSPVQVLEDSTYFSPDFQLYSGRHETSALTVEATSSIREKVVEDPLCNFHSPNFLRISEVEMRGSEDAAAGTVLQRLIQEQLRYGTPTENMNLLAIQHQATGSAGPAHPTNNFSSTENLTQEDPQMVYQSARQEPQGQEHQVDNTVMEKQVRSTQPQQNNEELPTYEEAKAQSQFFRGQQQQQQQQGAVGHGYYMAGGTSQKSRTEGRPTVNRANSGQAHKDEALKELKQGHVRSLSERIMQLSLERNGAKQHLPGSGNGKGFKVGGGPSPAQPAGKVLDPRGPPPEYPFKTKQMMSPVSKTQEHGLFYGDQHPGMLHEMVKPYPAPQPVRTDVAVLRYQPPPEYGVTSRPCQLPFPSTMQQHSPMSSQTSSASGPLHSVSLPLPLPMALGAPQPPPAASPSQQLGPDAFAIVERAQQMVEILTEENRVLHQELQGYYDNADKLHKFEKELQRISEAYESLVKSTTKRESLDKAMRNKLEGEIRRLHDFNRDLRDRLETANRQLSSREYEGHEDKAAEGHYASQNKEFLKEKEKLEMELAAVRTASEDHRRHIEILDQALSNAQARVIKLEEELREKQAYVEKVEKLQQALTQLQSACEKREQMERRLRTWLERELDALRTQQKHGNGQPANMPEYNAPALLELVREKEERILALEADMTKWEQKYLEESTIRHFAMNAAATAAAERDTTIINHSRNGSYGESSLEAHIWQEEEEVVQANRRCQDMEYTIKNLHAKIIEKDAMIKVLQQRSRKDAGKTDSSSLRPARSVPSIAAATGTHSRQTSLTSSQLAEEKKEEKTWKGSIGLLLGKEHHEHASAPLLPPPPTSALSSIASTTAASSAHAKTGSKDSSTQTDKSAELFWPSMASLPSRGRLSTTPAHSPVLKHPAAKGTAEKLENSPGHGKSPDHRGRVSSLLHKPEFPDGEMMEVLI

[3] = target: endogenous YAP1 (human (endogenous in HEK293T)) (UniProt P46937); experiment: co-IP; endogenous proteins in HEK293T lysates; precipitated and blotted with anti-AMOTL1, anti-YAP1 and anti-Nedd4.2 antibodies; anti-CEP164 as negative control
[4] = target: V5-tagged YAP1, wild type (human) (UniProt P46937); experiment: co-IP; data not shown; YAP1 precipitated the single and double AMOTL1 PY mutants

Molecule: V5-tagged YAP1 WW1 mutant (from UniProt P46937 1-504)
- binding [2]: no binding

Molecule: V5-tagged YAP1 WW2 mutant (from UniProt P46937 1-504)
- binding [2]: binds

B3: Flag-tagged AMOTL1^310–313A (protein, UniProt Q8IY63 1-956)
chain: MWRAKLRRGTCEPAVKGSPSACYSPSSPVQVLEDSTYFSPDFQLYSGRHETSALTVEATSSIREKVVEDPLCNFHSPNFLRISEVEMRGSEDAAAGTVLQRLIQEQLRYGTPTENMNLLAIQHQATGSAGPAHPTNNFSSTENLTQEDPQMVYQSARQEPQGQEHQVDNTVMEKQVRSTQPQQNNEELPTYEEAKAQSQFFRGQQQQQQQQGAVGHGYYMAGGTSQKSRTEGRPTVNRANSGQAHKDEALKELKQGHVRSLSERIMQLSLERNGAKQHLPGSGNGKGFKVGGGPSPAQPAGKVLDPRGPAAAAPFKTKQMMSPVSKTQEHGLFYGDQHPGMLHEMVKPYPAPQPVRTDVAVLRYQPPPEYGVTSRPCQLPFPSTMQQHSPMSSQTSSASGPLHSVSLPLPLPMALGAPQPPPAASPSQQLGPDAFAIVERAQQMVEILTEENRVLHQELQGYYDNADKLHKFEKELQRISEAYESLVKSTTKRESLDKAMRNKLEGEIRRLHDFNRDLRDRLETANRQLSSREYEGHEDKAAEGHYASQNKEFLKEKEKLEMELAAVRTASEDHRRHIEILDQALSNAQARVIKLEEELREKQAYVEKVEKLQQALTQLQSACEKREQMERRLRTWLERELDALRTQQKHGNGQPANMPEYNAPALLELVREKEERILALEADMTKWEQKYLEESTIRHFAMNAAATAAAERDTTIINHSRNGSYGESSLEAHIWQEEEEVVQANRRCQDMEYTIKNLHAKIIEKDAMIKVLQQRSRKDAGKTDSSSLRPARSVPSIAAATGTHSRQTSLTSSQLAEEKKEEKTWKGSIGLLLGKEHHEHASAPLLPPPPTSALSSIASTTAASSAHAKTGSKDSSTQTDKSAELFWPSMASLPSRGRLSTTPAHSPVLKHPAAKGTAEKLENSPGHGKSPDHRGRVSSLLHKPEFPDGEMMEVLI
- binding [4]: binds

Other lines, results leading:

- binding [1]: binds
Molecule: myc-tagged Nedd4.2, wild type (from UniProt Q96PU5-6 1-947) (enzyme)

- binding [3]: binds
B1: endogenous AMOTL1 (protein, UniProt Q8IY63 1-956)
chain: MWRAKLRRGTCEPAVKGSPSACYSPSSPVQVLEDSTYFSPDFQLYSGRHETSALTVEATSSIREKVVEDPLCNFHSPNFLRISEVEMRGSEDAAAGTVLQRLIQEQLRYGTPTENMNLLAIQHQATGSAGPAHPTNNFSSTENLTQEDPQMVYQSARQEPQGQEHQVDNTVMEKQVRSTQPQQNNEELPTYEEAKAQSQFFRGQQQQQQQQGAVGHGYYMAGGTSQKSRTEGRPTVNRANSGQAHKDEALKELKQGHVRSLSERIMQLSLERNGAKQHLPGSGNGKGFKVGGGPSPAQPAGKVLDPRGPPPEYPFKTKQMMSPVSKTQEHGLFYGDQHPGMLHEMVKPYPAPQPVRTDVAVLRYQPPPEYGVTSRPCQLPFPSTMQQHSPMSSQTSSASGPLHSVSLPLPLPMALGAPQPPPAASPSQQLGPDAFAIVERAQQMVEILTEENRVLHQELQGYYDNADKLHKFEKELQRISEAYESLVKSTTKRESLDKAMRNKLEGEIRRLHDFNRDLRDRLETANRQLSSREYEGHEDKAAEGHYASQNKEFLKEKEKLEMELAAVRTASEDHRRHIEILDQALSNAQARVIKLEEELREKQAYVEKVEKLQQALTQLQSACEKREQMERRLRTWLERELDALRTQQKHGNGQPANMPEYNAPALLELVREKEERILALEADMTKWEQKYLEESTIRHFAMNAAATAAAERDTTIINHSRNGSYGESSLEAHIWQEEEEVVQANRRCQDMEYTIKNLHAKIIEKDAMIKVLQQRSRKDAGKTDSSSLRPARSVPSIAAATGTHSRQTSLTSSQLAEEKKEEKTWKGSIGLLLGKEHHEHASAPLLPPPPTSALSSIASTTAASSAHAKTGSKDSSTQTDKSAELFWPSMASLPSRGRLSTTPAHSPVLKHPAAKGTAEKLENSPGHGKSPDHRGRVSSLLHKPEFPDGEMMEVLI

- binding [4]: binds
B2: Flag-tagged AMOTL1^367–370A (protein, UniProt Q8IY63 1-956)
chain: MWRAKLRRGTCEPAVKGSPSACYSPSSPVQVLEDSTYFSPDFQLYSGRHETSALTVEATSSIREKVVEDPLCNFHSPNFLRISEVEMRGSEDAAAGTVLQRLIQEQLRYGTPTENMNLLAIQHQATGSAGPAHPTNNFSSTENLTQEDPQMVYQSARQEPQGQEHQVDNTVMEKQVRSTQPQQNNEELPTYEEAKAQSQFFRGQQQQQQQQGAVGHGYYMAGGTSQKSRTEGRPTVNRANSGQAHKDEALKELKQGHVRSLSERIMQLSLERNGAKQHLPGSGNGKGFKVGGGPSPAQPAGKVLDPRGPPPEYPFKTKQMMSPVSKTQEHGLFYGDQHPGMLHEMVKPYPAPQPVRTDVAVLRYQPAAAAGVTSRPCQLPFPSTMQQHSPMSSQTSSASGPLHSVSLPLPLPMALGAPQPPPAASPSQQLGPDAFAIVERAQQMVEILTEENRVLHQELQGYYDNADKLHKFEKELQRISEAYESLVKSTTKRESLDKAMRNKLEGEIRRLHDFNRDLRDRLETANRQLSSREYEGHEDKAAEGHYASQNKEFLKEKEKLEMELAAVRTASEDHRRHIEILDQALSNAQARVIKLEEELREKQAYVEKVEKLQQALTQLQSACEKREQMERRLRTWLERELDALRTQQKHGNGQPANMPEYNAPALLELVREKEERILALEADMTKWEQKYLEESTIRHFAMNAAATAAAERDTTIINHSRNGSYGESSLEAHIWQEEEEVVQANRRCQDMEYTIKNLHAKIIEKDAMIKVLQQRSRKDAGKTDSSSLRPARSVPSIAAATGTHSRQTSLTSSQLAEEKKEEKTWKGSIGLLLGKEHHEHASAPLLPPPPTSALSSIASTTAASSAHAKTGSKDSSTQTDKSAELFWPSMASLPSRGRLSTTPAHSPVLKHPAAKGTAEKLENSPGHGKSPDHRGRVSSLLHKPEFPDGEMMEVLI

- binding [4]: binds
B4: Flag-tagged AMOTL1^310–313A/367–370A (protein, UniProt Q8IY63 1-956)
chain: MWRAKLRRGTCEPAVKGSPSACYSPSSPVQVLEDSTYFSPDFQLYSGRHETSALTVEATSSIREKVVEDPLCNFHSPNFLRISEVEMRGSEDAAAGTVLQRLIQEQLRYGTPTENMNLLAIQHQATGSAGPAHPTNNFSSTENLTQEDPQMVYQSARQEPQGQEHQVDNTVMEKQVRSTQPQQNNEELPTYEEAKAQSQFFRGQQQQQQQQGAVGHGYYMAGGTSQKSRTEGRPTVNRANSGQAHKDEALKELKQGHVRSLSERIMQLSLERNGAKQHLPGSGNGKGFKVGGGPSPAQPAGKVLDPRGPAAAAPFKTKQMMSPVSKTQEHGLFYGDQHPGMLHEMVKPYPAPQPVRTDVAVLRYQPAAAAGVTSRPCQLPFPSTMQQHSPMSSQTSSASGPLHSVSLPLPLPMALGAPQPPPAASPSQQLGPDAFAIVERAQQMVEILTEENRVLHQELQGYYDNADKLHKFEKELQRISEAYESLVKSTTKRESLDKAMRNKLEGEIRRLHDFNRDLRDRLETANRQLSSREYEGHEDKAAEGHYASQNKEFLKEKEKLEMELAAVRTASEDHRRHIEILDQALSNAQARVIKLEEELREKQAYVEKVEKLQQALTQLQSACEKREQMERRLRTWLERELDALRTQQKHGNGQPANMPEYNAPALLELVREKEERILALEADMTKWEQKYLEESTIRHFAMNAAATAAAERDTTIINHSRNGSYGESSLEAHIWQEEEEVVQANRRCQDMEYTIKNLHAKIIEKDAMIKVLQQRSRKDAGKTDSSSLRPARSVPSIAAATGTHSRQTSLTSSQLAEEKKEEKTWKGSIGLLLGKEHHEHASAPLLPPPPTSALSSIASTTAASSAHAKTGSKDSSTQTDKSAELFWPSMASLPSRGRLSTTPAHSPVLKHPAAKGTAEKLENSPGHGKSPDHRGRVSSLLHKPEFPDGEMMEVLI
